In the experiment the test system is P1534 leukemia ip, CD2F1 mice, survival T/C. As to the kind of experiment: NCI In Vivo Anticancer Drug Screen. Data for tumor model P1534 Leukemia (intraperitoneal) in CD2F1 (CDF1) mice. The conditions noted are these: T/C endpoint: mean survival time, higher T/C = longer survival. The procedure: The antitumor activity of compounds was measured in mice bearing transplantable tumors. Survival or tumor size were measured and the results are expressed as the measurement made in the treated group (T) divided by the measurement made in the vehicle treated control group (C). The tumor model used in this assay is P1534 Leukemia (intraperitoneal) in CD2F1 (CDF1) mice

Setting [1] is: dose: 400.0 mg/kg/injection, schedule: Q01DX010 (ip), vehicle: saline.

The list is a part of this screen's results and no random one: it gathers tests that were run many times, whatever their T/C, doses with no T/C, and many T/C values between a quarter and a half above the control. Other doses and runs of a compound stand elsewhere. T/C gives the treated animals as a percentage of the vehicle group. Some entries give survivors of the animals treated and no T/C: the source files T/C as zero there, which appears to mark a toxic dose or a test without result, not a measured value. Some doses without a T/C left all or most animals alive at the check, yet need not have been tolerated: the source hardly ever lists a survival T/C far under the control, and the zero likely stands for such cases as well. Survivors were counted at the toxicity check, usually on the fifth day, unless a day is given; later deaths do not show. Schedule codes are those of the source, read here as Q, the interval in days (D) or hours (H), X, the number of doses. Some schedules carry Z or #; the key to these is not given. For survival time, this PubChem deposit counts one and a half times the control or more as active, and values a quarter to a half above the control carry no call in these data; other NCI protocols may use other cut-offs.

For the compound `COc1c(OC2OC(CO)C(O)C(O)C2O)cc2c(c1OC)-c1ccc(OC)c(=O)cc1C(NC(C)=O)CC2` (stereo not drawn), the survivor count (dose: 100.0 mg/kg/injection, schedule: Q01DX010 (ip), vehicle: saline) was 6 of 6; the survivor count (dose: 200.0 mg/kg/injection, schedule: Q01DX010 (ip), vehicle: saline) is 4 of 6; the survivor count under setting [1] was 0 of 6.

In the case of `O=c1ccc2ccccc2o1`, under setting [1], the survivor count was 4 of 6.

As for `CC(=O)OC(C)(C)/C=C/C(=O)[C@](C)(O)[C@H]1[C@H](O)C[C@@]2(C)[C@@H]3CC=C4[C@@H](C[C@H](O)C(=O)C4(C)C)[C@]3(CO)C(=O)C[C@]12C`, under “dose: 0.38 mg/kg/injection, schedule: Q01DX010 (ip), vehicle: saline”, the survivor count is reported as 2 of 6.

For the compound `O=P1(N(CCCl)CCCl)NCCCO1` (stereo not drawn), the T/C (dose: 22.5 mg/kg/injection, schedule: Q01DX010 (ip), vehicle: saline) was 132 % of control.

With `CC1CCC2(NC1)OC1CC3C4CCC5CC(OC6OC(CO)C(OC7OC(CO)C(O)C(OC8OCC(O)C(O)C8O)C7OC7OC(CO)C(O)C(O)C7O)C(O)C6O)CCC5(C)C4CCC3(C)C1C2C` (stereo not drawn), the survivor count runs as follows: (dose: 20.0 mg/kg/injection, schedule: Q01DX010 (sc), vehicle: steroid suspending solution) 0 of 6; (dose: 40.0 mg/kg/injection, schedule: Q01DX010 (sc), vehicle: steroid suspending solution) 0 of 6.

On to `COc1cc2c(c(OC)c1OC)-c1ccc(OC)c(=O)cc1[C@@H](NC(C)=O)CC2`, for which the T/C is 140 % of control (dose: 0.08 mg/kg/injection, schedule: Q01DX010 (ip), vehicle: saline, evaluated on day 46); 142 % of control (dose: 0.08 mg/kg/injection, schedule: Q01DX010 (ip), vehicle: saline, run until all animals had died); 133 % of control (dose: 0.09 mg/kg/injection, schedule: Q01DX015 (ip), vehicle: saline); 139 % of control (dose: 0.12 mg/kg/injection, schedule: Q01DX010 (ip), vehicle: saline); 138 % of control (dose: 0.13 mg/kg/injection, schedule: Q01DX015 (ip), vehicle: saline). The survivor count reads like this: (dose: 2.0 mg/kg/injection, schedule: Q## X004 (ip), vehicle: saline) 5 of 10; (dose: 3.0 mg/kg/injection, schedule: Q## X004 (ip), vehicle: saline) 3 of 10; (dose: 3.6 mg/kg/injection, schedule: Q## X032 (ip), vehicle: saline) 0 of 10; (dose: 3.7 mg/kg/injection, schedule: Q01DX001 (ip), vehicle: saline) 5 of 9; (dose: 4.5 mg/kg/injection, schedule: Q## X004 (ip), vehicle: saline) 1 of 10; (dose: 5.4 mg/kg/injection, schedule: Q## X032 (ip), vehicle: saline) 0 of 10. The survivor count (dose: 5.6 mg/kg/injection, schedule: Q01DX001 (ip), vehicle: saline) is given as 2 of 10.

In the case of `O=C(Nc1ccc(C2=NCCN2)cc1)c1cccc(C(=O)Nc2ccc(C3=NCCN3)cc2)c1`, the T/C (dose: 16.0 mg/kg/injection, schedule: Q01DX010 (ip), vehicle: saline) was 127 % of control.

Regarding `CC(=O)NC1=C(N2CC2)C(=O)C(NC(C)=O)=C(N2CC2)C1=O`, the T/C is, setting by setting: (dose: 125.0 micrograms/kg/injection, schedule: Q01DX010 (ip), vehicle: saline) 125 % of control; (dose: 250.0 micrograms/kg/injection, schedule: Q01DX010 (ip), vehicle: saline) 135 % of control.

These data come from PubChem BioAssay AID316 (DTP/NCI, 2004).
